Test results from the supplement of paper PMC12823440, “Inhibitors supercharge kinase turnover through native proteolytic circuits” (Nature, 2025).
Where a name gives a salt, the structure may show the parent alone. The list shows a part of the results. Hit calls seldom repeat between salt and free forms of one compound.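 Kinases were expressed as nanoluciferase fusions in K562 cells and luminescence was read every 4 h between 2 and 18 h as percent of control, DMSO set to 100% and a positive control to 0%. A time point counts as decreased when the signal drops significantly (2 sigma). The hit call is the authors' own, does not follow from the count of time points alone, and its rule is not shown.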

Chains of the proteins cited; added tags and fusions are not shown.
UniProt P09619, whole entry: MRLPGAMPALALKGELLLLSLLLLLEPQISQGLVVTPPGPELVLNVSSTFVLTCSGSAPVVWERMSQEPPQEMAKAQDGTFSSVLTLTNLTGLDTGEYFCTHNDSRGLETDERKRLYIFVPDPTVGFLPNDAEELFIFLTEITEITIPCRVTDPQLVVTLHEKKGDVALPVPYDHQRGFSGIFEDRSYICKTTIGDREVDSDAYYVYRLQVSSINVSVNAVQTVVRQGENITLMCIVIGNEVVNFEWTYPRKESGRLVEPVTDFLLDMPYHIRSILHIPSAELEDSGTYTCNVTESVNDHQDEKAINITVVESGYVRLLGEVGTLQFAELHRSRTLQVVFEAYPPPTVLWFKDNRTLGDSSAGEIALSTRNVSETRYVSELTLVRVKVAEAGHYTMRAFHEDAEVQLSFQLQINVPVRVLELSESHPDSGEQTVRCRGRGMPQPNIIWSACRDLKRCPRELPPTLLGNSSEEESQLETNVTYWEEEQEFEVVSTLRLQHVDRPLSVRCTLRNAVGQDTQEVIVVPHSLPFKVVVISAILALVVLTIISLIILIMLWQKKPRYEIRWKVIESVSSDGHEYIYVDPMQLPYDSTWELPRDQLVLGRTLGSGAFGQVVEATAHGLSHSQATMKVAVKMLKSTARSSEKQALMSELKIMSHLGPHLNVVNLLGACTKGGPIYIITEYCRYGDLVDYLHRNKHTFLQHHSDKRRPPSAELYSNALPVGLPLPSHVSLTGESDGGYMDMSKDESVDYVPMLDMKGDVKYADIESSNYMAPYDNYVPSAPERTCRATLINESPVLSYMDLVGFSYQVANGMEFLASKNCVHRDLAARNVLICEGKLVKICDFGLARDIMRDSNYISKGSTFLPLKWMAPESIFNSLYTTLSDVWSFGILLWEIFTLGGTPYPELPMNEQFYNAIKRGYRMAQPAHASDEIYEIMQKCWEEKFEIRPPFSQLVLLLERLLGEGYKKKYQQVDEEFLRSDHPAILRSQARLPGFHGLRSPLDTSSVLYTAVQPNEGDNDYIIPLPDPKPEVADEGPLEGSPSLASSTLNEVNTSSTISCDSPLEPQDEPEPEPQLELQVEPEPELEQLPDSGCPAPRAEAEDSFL
UniProt Q15118, whole entry, looked up: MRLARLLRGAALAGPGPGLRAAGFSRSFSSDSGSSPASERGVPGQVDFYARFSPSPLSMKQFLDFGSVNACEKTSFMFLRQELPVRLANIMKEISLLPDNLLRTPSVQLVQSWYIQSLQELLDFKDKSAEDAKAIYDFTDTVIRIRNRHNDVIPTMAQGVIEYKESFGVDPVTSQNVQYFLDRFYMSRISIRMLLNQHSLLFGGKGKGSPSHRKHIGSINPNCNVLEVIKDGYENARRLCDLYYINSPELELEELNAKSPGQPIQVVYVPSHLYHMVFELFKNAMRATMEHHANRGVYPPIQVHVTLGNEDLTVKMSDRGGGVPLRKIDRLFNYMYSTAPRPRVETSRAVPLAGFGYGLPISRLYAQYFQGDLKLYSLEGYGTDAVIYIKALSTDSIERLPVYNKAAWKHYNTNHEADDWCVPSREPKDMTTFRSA

Biological target: PDGFRB (UniProt P09619)
Experiment: kinase-Nluc reporter destabilization hit call (1 = scored as downregulated) (binary); higher = compound decreases kinase abundance
Conditions: 2.5 µM; K562; 2-18 h

kinase-Nluc reporter destabilization hit call, inactive:
CN(C)C/C=C/C(=O)Nc1cc2c(Nc3ccc(F)c(Cl)c3)ncnc2cc1O[C@H]1CCOC1 [Afatinib (dimaleate)] 0, Oc1cccc(-c2nc(N3CCOCC3)c3oc4ncccc4c3n2)c1 [PI-103 (Hydrochloride)] 0, c1cc(-c2cnn3cc(-c4ccc(OCCN5CCCCC5)cc4)cnc23)ccn1 [Dorsomorphin] 0, COc1ccc(S(=O)(=O)N(CCO)c2ccccc2CN(C)C/C=C/c2ccc(Cl)cc2)cc1 [KN-93 (phosphate)] 0, Nc1ncnc2c1c(-c1ccc(Oc3ccccc3)cc1)nn2[C@@H]1CCCNC1 [IBT6A (hydrochloride)] 0

Same assay, conditions: 10 µM; K562; 2-18 h

kinase-Nluc reporter destabilization hit call, inactive:
COc1cc2nccc(Oc3ccc(NC(=O)C4(C(=O)Nc5ccc(F)cc5)CC4)cc3)c2cc1OC [Cabozantinib (S-malate)] 0, Cn1cc(-c2cnc3ccc4ccc(CS(=O)(=O)NCc5ccccn5)cc4c(=O)c3c2)cn1 [MK-8033 (hydrochloride)] 0, CNC(=O)c1ccc(Nc2ncc(C(F)(F)F)c(NCc3nccnc3N(C)S(C)(=O)=O)n2)cc1 [Defactinib] 0, N#CCNC(=O)c1ccc(-c2ccnc(Nc3ccc(N4CCOCC4)cc3)n2)cc1 [Momelotinib] 0, CC(=O)c1c(C)c2cnc(Nc3ccc(N4CCNCC4)cn3)nc2n(C2CCCC2)c1=O [Palbociclib (isethionate)] 0, Nc1cncc(-c2cn3ccnc3c(Nc3ccc(N4CCN(C5COC5)CC4)cc3)n2)n1 [Lanraplenib (succinate)] 0, C#Cc1cccc(Nc2ncnc3cc4c(cc23)OCCOCCOCCO4)c1 [Icotinib] 0, O=C(O)c1ccc2c(c1)nc(Nc1cccc(Cl)c1)c1ccncc12 [Silmitasertib (sodium salt)] 0, CC(C)Nc1cc(-c2c[nH]c(C(=O)N[C@H](CO)c3cccc(Cl)c3)c2)c(Cl)cn1 [Ulixertinib (hydrochloride)] 0, C=CC(=O)N1CCN(c2ncnc3c(F)c(-c4c(O)cccc4F)c(Cl)cc23)CC1 0, CN(C)C(=O)c1cc2cnc(Nc3ccc(N4CCNCC4)cn3)nc2n1C1CCCC1 [Ribociclib] 0, COc1cc2c(-c3cnn4cc(N5CCC(N6CCN(C)CC6)CC5)cnc34)ccnc2cc1F [ALK2-IN-4 (succinate)] 0, CCN(CC)Cc1ccc(OC)c(-c2cc3c(-c4ccc(C(=O)O)c(C(C)C)c4)ccnc3[nH]2)c1 0, O=C(c1nn(-c2ccc(CN3CCOCC3)cc2)c2c1CS(=O)(=O)c1c(F)cccc1-2)N1CCOCC1 0, CC(C)(C)n1nc(-c2cccc3ccccc23)c2c(N)ncnc21 [1-Naphthyl PP1 (hydrochloride)] 0, CCN(CC)CC(=O)Nc1c(C)cccc1C [Lidocaine (hydrochloride)] 0, Cn1ncc(Cl)c1-c1cc(C(=O)N[C@H](CN)Cc2cccc(F)c2)sc1Cl [Afuresertib (hydrochloride)] 0, COc1cc2c(cc1OC)-c1c(C)c3ccc(OC)c(OC)c3c[n+]1CC2 [Dehydrocorydaline] 0, C[C@H](CCC(=O)NCCS(=O)(=O)O)[C@H]1CC[C@H]2[C@@H]3[C@@H](O)C[C@@H]4C[C@H](O)CC[C@]4(C)[C@H]3CC[C@]12C [Tauroursodeoxycholate (dihydrate)] 0, OCCn1cc(-c2cnc3nnn(Cc4ccc5ncccc5c4)c3n2)cn1 0, C[S+]([O-])c1ccc(-c2nc(-c3ccc(F)cc3)c(-c3ccncc3)[nH]2)cc1 (configuration not stated) 0, CC(C)(C)n1nc(-c2cccc3ccccc23)c2c(N)ncnc21 [1-Naphthyl PP1] 0

Biological target: PDK1 (UniProt Q15118)
Experiment: as above
Conditions: 2.5 µM; K562; 2-18 h

kinase-Nluc reporter destabilization hit call, inactive:
CN1CCCN(C(=O)c2cccc(-c3ccc(/C=C4/C(=O)Nc5ccc(Cl)cc54)o3)c2)CC1 [CX-6258 (hydrochloride)] 0, Clc1ccc(C2(c3ccc(-c4cn[nH]c4)cc3)CCNCC2)cc1 [AT7867 (dihydrochloride)] 0, CC(C)Oc1ccc(-c2nn([C@@H](C)c3oc4ccc(F)cc4c(=O)c3-c3cccc(F)c3)c3ncnc(N)c23)cc1F [Umbralisib] 0, C=CC(=O)Nc1cc(Nc2nccc(-c3cn(C)c4ccccc34)n2)c(OC)cc1N(C)CCN(C)C [Osimertinib] 0, COc1cc2c(Oc3ccc4[nH]c(C)cc4c3F)ncnc2cc1OCCCN1CCCC1 [Cediranib (maleate)] 0, CC(C)Oc1ccc(-c2nn([C@@H](C)c3oc4ccc(F)cc4c(=O)c3-c3cccc(F)c3)c3ncnc(N)c23)cc1F [Umbralisib (hydrochloride)] 0, COc1ccc(S(=O)(=O)N(CCO)c2ccccc2CN(C)C/C=C/c2ccc(Cl)cc2)cc1 [KN-93 (hydrochloride)] 0, C=CC(=O)N1CCN(c2ncnc3c(F)c(-c4c(O)cccc4F)c(Cl)cc23)CC1 0, COc1ccc(S(=O)(=O)Nc2ccccc2CN(C)C/C=C/c2ccc(Cl)cc2)cc1 [KN-92 (hydrochloride)] 0, CCN(CC)Cc1ccc(OC)c(-c2cc3c(-c4ccc(C(=O)O)c(C(C)C)c4)ccnc3[nH]2)c1 0, CN(C)C/C=C/C(=O)Nc1cc2c(Nc3ccc(F)c(Cl)c3)ncnc2cc1O[C@H]1CCOC1 [Afatinib (dimaleate)] 0, Oc1cccc(-c2nc(N3CCOCC3)c3oc4ncccc4c3n2)c1 [PI-103 (Hydrochloride)] 0, c1cc(-c2cnn3cc(-c4ccc(OCCN5CCCCC5)cc4)cnc23)ccn1 [Dorsomorphin] 0, COc1ccc(S(=O)(=O)N(CCO)c2ccccc2CN(C)C/C=C/c2ccc(Cl)cc2)cc1 [KN-93 (phosphate)] 0, Nc1ncnc2c1c(-c1ccc(Oc3ccccc3)cc1)nn2[C@@H]1CCCNC1 [IBT6A (hydrochloride)] 0
